Measurements from US10563263B2, “Genetic polymorphisms associated with statin response and cardiovascular diseases, methods of detection and uses thereof” (CELERA CORPORATION, priority 2010, dated 2020).
The source gives many values for each of these; only a part stands here.

Tested on: CVD (CHD or stroke)
Experiment: Meta-analysis of CARE and WOSCOPS combined, synergy index, CVD endpoint
Type: in vivo, human
Excerpt: Tables 4-5 provide meta-analyses of CARE and WOSCOPS combined (2nd section of each table) for two endpoints (CHD and CVD) and three genetic models (dominant, recessive, and additive), as well as logistic regression analyses of CARE (3rd section of each table) and WOSCOPS (4th section of each table) individually.
Tables 12 and 17 provide results of meta-analysis of the CARE and WOSCOPS sample sets combined by direct genotyping and by imputing genotypes.
“P” indicates the p-value, and “P(R)” (or “P.R.”) indicates the p-value random effect. Both of these are p-values corresponding to a statistical test of whether the combined synergy index is equal to one but use different assumptions to derive the p-value. “P” is calculated using a fixed effects model, and “P(R)” is calculated using a random effects model.
“OR” indicates the odds ratio (synergy index) calculated from a fixed effects model, and “OR(R)” (or “OR.R.”) indicates the odds ratio (synergy index) calculated from a random effects model.

[1] = rs6774353 allele A GENOTYPIC Imputed
[2] = rs6781670 allele C GENOTYPIC Imputed
[3] = rs6786431 allele A GENOTYPIC Imputed
[4] = rs6789091 allele T GENOTYPIC Imputed
[5] = rs6791296 allele T ADDITIVE Imputed
[6] = rs6792662 allele G DOMINANT Imputed
[7] = rs6797574 allele G GENOTYPIC Imputed
[8] = rs6797882 allele G GENOTYPIC Imputed
[9] = rs6805139 allele G DOMINANT Imputed
[10] = rs6806043 allele C ADDITIVE Imputed
[11] = rs6806043 allele C GENOTYPIC Imputed
[12] = rs6850716 allele C GENOTYPIC Imputed
[13] = rs6867153 allele A RECESSIVE Imputed
[14] = rs6871041 allele G DOMINANT Imputed
[15] = rs6888012 allele A RECESSIVE Imputed
[16] = rs6908481 allele C RECESSIVE Imputed
[17] = rs7032231 allele A ADDITIVE Imputed
[18] = rs7067638 allele T DOMINANT Imputed
[19] = rs7077799 allele A DOMINANT Imputed
[20] = rs7082163 allele A ADDITIVE Imputed
[21] = rs7082163 allele A DOMINANT Imputed
[22] = rs7089661 allele C DOMINANT Imputed
[23] = rs7101319 allele C ADDITIVE Imputed
[24] = rs7101319 allele C DOMINANT Imputed
[25] = rs7134262 allele T GENOTYPIC Imputed
[26] = rs7134262 allele T RECESSIVE Imputed
[27] = rs7134671 allele T GENOTYPIC Imputed
[28] = rs7138300 allele C ADDITIVE Imputed
[29] = rs7138300 allele C DOMINANT Imputed
[30] = rs7138300 allele C GENOTYPIC Imputed
[31] = rs7163931 allele G GENOTYPIC Imputed
[32] = rs7163931 allele G RECESSIVE Imputed
[33] = rs7171486 allele G DOMINANT Genotyped
[34] = rs7172611 allele G GENOTYPIC Imputed
[35] = rs7172611 allele G RECESSIVE Imputed
[36] = rs7172689 allele T GENOTYPIC Imputed
[37] = rs7172689 allele T RECESSIVE Imputed
[38] = rs7175701 allele C GENOTYPIC Imputed
[39] = rs7180245 allele A GENOTYPIC Imputed
[40] = rs7180245 allele A RECESSIVE Imputed
[41] = rs7220603 allele A ADDITIVE Genotyped

CC[C@H](C)C(=O)O[C@H]1C[C@H](O)C=C2C=C[C@H](C)[C@H](CC[C@@H](O)C[C@@H](O)CC(=O)O)[C@H]21 [Pravastatin, pravastatin]
OR [1]: 2.0921
OR(R) [1]: 2.0921
OR [2]: 2.0683
OR(R) [2]: 2.0683
OR [3]: 2.0503
OR(R) [3]: 2.0503
OR [4]: 2.0503
OR(R) [4]: 2.0503
OR [5]: 0.6284
OR(R) [5]: 0.6284
OR [6]: 1.7002
OR(R) [6]: 1.7002
OR [7]: 2.0503
OR(R) [7]: 2.0503
OR [8]: 2.0585
OR(R) [8]: 2.0585
OR [9]: 1.6957
OR(R) [9]: 1.6957
OR [10]: 1.4041
OR(R) [10]: 1.4041
OR [11]: 2.1162
OR(R) [11]: 2.1162
OR [12]: 3.2642
OR(R) [12]: 3.2642
OR [13]: 0.5455
OR(R) [13]: 0.5455
OR [14]: 0.6351
OR(R) [14]: 0.6351
OR [15]: 0.5455
OR(R) [15]: 0.5455
OR [16]: 1.8461
OR(R) [16]: 1.8461
OR [17]: 1.2986
OR(R) [17]: 1.3011
OR [18]: 1.6722
OR(R) [18]: 1.6722
OR [19]: 1.5609
OR(R) [19]: 1.5609
OR [20]: 1.6619
OR(R) [20]: 1.6619
OR [21]: 1.7473
OR(R) [21]: 1.7473
OR [22]: 1.5612
OR(R) [22]: 1.5612
OR [23]: 1.6533
OR(R) [23]: 1.6533
OR [24]: 1.7359
OR(R) [24]: 1.7359
OR [25]: 1.9228
OR(R) [25]: 1.9228
OR [26]: 2.1112
OR(R) [26]: 2.0864
OR [27]: 1.9952
OR(R) [27]: 1.9952
OR [28]: 0.7392
OR(R) [28]: 0.7392
OR [29]: 0.6285
OR(R) [29]: 0.6285
OR [30]: 0.574
OR(R) [30]: 0.574
OR [31]: 3.4509
OR(R) [31]: 3.4509
OR [32]: 3.317
OR(R) [32]: 3.317
OR [33]: 0.6976
OR(R) [33]: 0.69
OR [34]: 3.4591
OR(R) [34]: 3.4591
OR [35]: 3.317
OR(R) [35]: 3.317
OR [36]: 3.4591
OR(R) [36]: 3.4591
OR [37]: 3.317
OR(R) [37]: 3.317
OR [38]: 2.9103
OR(R) [38]: 2.9103
OR [39]: 3.4591
OR(R) [39]: 3.4591
OR [40]: 3.317
OR(R) [40]: 3.317
OR [41]: 0.6874
OR(R) [41]: 0.6874
OR (rs7282518 allele T ADDITIVE Imputed): 1.6157
